The values that follow come from PubChem BioAssay AID1347423 (Functional Genomics Laboratory (NCATS/FGL), 2020).

Screen size: about 52,000 sequences; about 210 (0.4%) were called active.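 How the source made its calls: active means gene whose silencing raises cell survival under the drug, median off-target-corrected z-score across its silencing RNAs 2 or more; inactive means the rest.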 Some of the results follow.

The experiment is described as follows: Resistance to Poly (ADP-Ribose) Polymerase inhibitor: Gene Identification via Genome-wide siRNA Screen. The note with it: mouse BRCA2 R2336H ES cells, olaparib, CellTiter-Glo viability; active compounds read high. The method, boiled down:
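Genome-wide siRNA screen (3 siRNAs/gene, 20 nM) in mouse ES cells carrying hypomorphic BRCA2 R2336H; olaparib 500 nM added 48 h post-transfection, CellTiter-Glo viability 72 h later. Normalized to plate-median negative control; MAD z-scores, gene median, seed-adjusted.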
A general note: In ATP-based viability assays light output follows the ATP content of the culture.
With GGAGAUUGCCCUCUAUGAGTT against Prom1, the z-score was inactive: 0.403.

Regarding “GGCUUCUUGAGGAGAAAGATT against 2310001H13Rik”, the z-score was inactive: -0.0209.

On to “GGCAGUAGUUAGCAAAUAUTT against 2810433K01Rik”, for which the z-score is inactive: -3.42.

Consider “CUAGCUUGUGCCGUUCUGATT against 2310016M24Rik”, for which the z-score was inactive: -0.924.

Regarding GAAUAUUCAAGCAUUACUCTT against Olfr1302, the z-score is inactive: 0.206.

GGCGAAAAGACCAGUUAUGTT against Man2c1: the z-score was inactive: 0.418.

Regarding CCCAGCAGGCCAUAUUAGUTT against Cks1, the z-score is inactive: -0.133.

Turning to “GGCAGUAAGAACUACUAAATT against C130057E09Rik”, the z-score is inactive: -0.865.

GCUAUGAAGUUCAAAGGUCTT against Arf4: the z-score was inactive: -0.717.

For the sequence CGGGAUAGCUGUCCUGUUATT against Mrps14, the z-score was inactive: -2.31.

Take “GCAGCAUGAAUCACACCUUTT against 6530401N04Rik”: the z-score was inactive: 2.02.

Turning to CGAGAAGAACUGUGUAAAGTT against Vldlr, the z-score is inactive: -0.0206.

With CCGACAUUCGAGUUUUGCGTT against Rnu3ip2, the z-score is inactive: 0.506.

On to CGAGAUACUCAAUAUGUGGTT against Sumf2, for which the z-score was inactive: 0.21.

For CCAGAUUCGAAUAUCUAAGTT against Mrps30, the z-score is inactive: 0.239.

With CGCAGAAGCUUAGCCAUCATT against Cog6, the z-score was inactive: -0.39.

In the case of GGUACUGUUUAUCAUUCAUTT against BC016235, the z-score was inactive: 0.42.

GCGAAGGCGAUUUCUACUATT against Gm433: the z-score is inactive: -0.591.

As for GGACCUUAAAUUUAGAUGGTT against Cept1, the z-score is inactive: -0.286.

Consider GGCAUCAAGUCCAUUUUUGTT against Slc12a4, for which the z-score is inactive: -0.293.

For GGAUUGUGUUAGAACUUACTT against Blk, the z-score is inactive: 0.273.

On to CGAACACUUUAACAUUUUGTT against BC053393, for which the z-score is inactive: 0.542.

Regarding CCUACGGACUCAGGAAAUATT against Tle6, the z-score was inactive: 0.254.

With CCCUAAUAGUGAAUACAUGTT against Icos, the z-score is inactive: 0.427.

GGAAUUUUUUCAUACCACUTT against Waspip: the z-score is inactive: 1.14.

As for “GCCUUACACUGUAGUCAGGTT against C130023O10Rik”, the z-score was inactive: 0.508.

On to GGAGAUGAGGAAGCUCUUCTT against Usp4, for which the z-score was inactive: -0.357.

For “CGUUACCCUGGAUUCCGAUTT against 4921511H03Rik”, the z-score was inactive: 0.537.

Consider CCUGCCUAUUGUUUCAGAATT against Ifna11, for which the z-score was inactive: 0.134.

As for “GCCAGCAUAAAUAUACUUUTT against 9030421J09Rik”, the z-score is inactive: -0.26.

In the case of GCUCAAGUGGGCCUUUAGCTT against Hpcal1, the z-score was inactive: 0.182.

On to GGAGUAUAUCUCGUUUAUATT against Ube2e2, for which the z-score is inactive: -0.466.

As to GGACAAGGAAUUCUAACAGTT against Gbif, the z-score is inactive: -0.424.

In the case of GGAAUGGAAAUUUGAUACUTT against Ddx48, the z-score was inactive: -1.56.

As to “GCAAAGUCAAGAGAAGUAUTT against A430033K04”, the z-score was inactive: -1.98.

As to CCUUAUCAGCCAGGGUUGGTT against Asb9, the z-score was inactive: -0.058.

On to “GCCAGAUCUUAUCAUUAUUTT against 2700075B01Rik”, for which the z-score was inactive: -0.0865.

Take GGACAAGUUUUCCUUUUCUTT against Phf2: the z-score was inactive: 0.468.

Consider GGAAAUGGUGAAUAUGCGUTT against Rnf146, for which the z-score is inactive: 0.171.

With GGGAAAGUUUCUGCAUUCUTT against Sprrl7, the z-score is inactive: -0.9.

“GGAUGUCAAGCUUUCCCAATT against 3632451O06Rik”: the z-score was inactive: 0.731.

“CCUUAUUGGGUCAUAAGCATT against 2210403B10Rik”: the z-score is inactive: 0.798.

GGCUCAGGUGCCAAUUGCATT against Mfng: the z-score is inactive: -0.918.

In the case of GGAUUUUUGAUCUACCUAUTT against Slc16a7, the z-score was inactive: 1.65.

Take GGAAGACGGCAAUCAACCATT against Cyp2c37: the z-score is inactive: 1.09.

Turning to GGGCUAAUGAGAUAGGUUUTT against Slc19a2, the z-score was inactive: 0.453.

For GGUCAGUCAGAACAUGCUATT against Xrcc2, the z-score was inactive: 0.0448.

Consider CCUUUCUUGUGUUUACAGGTT against P2ry6, for which the z-score is inactive: -0.278.

As to GUAUGCUAGCAUGAUCAACTT against Ndufa3, the z-score was inactive: 0.345.

On to GGAGAACAAAACCUCAGGATT against Hoxb7, for which the z-score was inactive: -2.32.

For the sequence “GGGACUGAGGACUACAUUCTT against 1500010M16Rik”, the z-score was inactive: -0.588.

Regarding GCGAUUGAAAACAUACUUCTT against Chst10, the z-score was inactive: 0.741.

Turning to GGAAGAAUGUAUGAACUGUTT against Emid2, the z-score is inactive: 0.517.

Turning to GCUACCACUUCUUUAAUAATT against Hrpt2, the z-score was inactive: -3.24.

As for UGGCGAGAUCGGCAUUGGUTT against Ren2, the z-score was inactive: -0.43.

Turning to GGGUAUGGUGGUCAAUAAATT against Gm606, the z-score is inactive: -1.21.

For GGCUGGAUGUAGAAAAUAUTT against Calmbp1, the z-score is inactive: -2.61.

For the sequence GGUCAUCAAACACAAUUUATT against Prlr, the z-score was inactive: -0.323.

On to GGAGAAGAAGGUGAAGAAGTT against Ppp1r3b, for which the z-score is inactive: 1.11.

Take CCACCGACUGUGACAUUGUTT against BC016201: the z-score is inactive: -1.34.

In the case of CGACAACCAAAUCAUCACCTT against Gnb2, the z-score was inactive: 0.916.

Take “GCGGAUGAAUACUUACUUATT against 5730577I03Rik”: the z-score is inactive: -0.788.

As to GGAAGCCAAGUGUACAUUUTT against Clca4, the z-score is inactive: -0.289.

With GCAUAUUGUGCGACUUUUCTT against AW544865, the z-score is inactive: -2.39.

On to GGCCGCCCUAAAAAGAAGCTT against Olfr95, for which the z-score is inactive: 0.773.

As for GGCCAGGUUGAGGAUUUUGTT against Nol5, the z-score is inactive: -0.336.

In the case of GGAUUUGUUAACCAGACAUTT against Cab39l, the z-score was inactive: -0.247.

Consider GGGCAAGGAUUCUUUGUAUTT against Rpl36a, for which the z-score is inactive: -2.35.

As for “GCUCCCACACUUCAUCCCUTT against 1700029G01Rik”, the z-score is inactive: 0.717.

Consider “GGAGUAUGAGAUGCAGUGUTT against 1110028N05Rik”, for which the z-score is inactive: -2.5.

With “GGAGAAACUCAACUCUCUCTT against A330102K23Rik”, the z-score was inactive: 0.165.

With GGAGGAGGAGCUGAAGAAATT against Atp12a, the z-score was inactive: -1.04.

With GGCCAAACGGAAAUUCAGCTT against Rax, the z-score is inactive: 0.903.

For the sequence GGAGACAUGGACCAUGGCUTT against Mapt, the z-score is inactive: 1.44.

Take CGGCCCUAUAGUUUUCUGGTT against BC022692: the z-score was inactive: 1.61.

Turning to GGGAAAGUCGAGCUUUUUCTT against H28, the z-score is inactive: -0.141.

On to “GGCUCAAGUAUGAGUCUCATT against 2810048G17Rik”, for which the z-score is inactive: -1.

GGAGAAAGAUGUUUACCGATT against Hyal2: the z-score was inactive: 1.49.

Consider GCUCAUAUACACCAUUUCUTT against Gm905, for which the z-score was inactive: 0.955.

In the case of GCCAGAUCUCAAGAGGAUCTT against Chn2, the z-score is inactive: 0.734.

For the sequence GCAGCUCCAAAUCCUGUUCTT against Asb16, the z-score was active: -1.78.

Regarding GGAAAUCGUAAAGUUUAGCTT against Temt, the z-score is inactive: 0.841.

As to GCUCAACAAAGCCUGUUCGTT against Zp3, the z-score is inactive: 1.34.

With CCGUUUACUUCGUCCAAGUTT against Crlf1, the z-score is inactive: 1.01.

On to “GGGAUGAGAAAGAUGUGCCTT against C530008M17Rik”, for which the z-score is inactive: 0.626.

As to “GCAGUACCGAGCAGCAGAATT against 2410021P16Rik”, the z-score was inactive: -0.712.

Take “GCUUUGAGACCUAAUGAUGTT against 1810024B03Rik”: the z-score was inactive: 0.159.

GCUUUAGAAUCCAAUACAATT against Zhx1: the z-score is inactive: -0.473.

With GGUCAAGAAGUAUUUUGUCTT against Fbxo6b, the z-score is inactive: 1.42.

As to CGGAAAGCACAAAAACACUTT against Ocilrp1, the z-score was inactive: 0.829.

With “GGCUGUCUGCUGAAAUGAUTT against 9330177P20Rik”, the z-score was inactive: -0.478.

As to GCGAUUAUUUCGCUUUGGATT against Pcdha12, the z-score is inactive: -0.675.

Take “CCAGAUUUCCUGCAUGGCUTT against 0610006I08Rik”: the z-score was inactive: 1.42.

As to “GGGCAACCUUCGUGUCAAGTT against 4933406E20Rik”, the z-score is inactive: -1.32.

For UCUCUCAUGAACUUCCACATT against Olfr1321, the z-score was inactive: -0.582.

CCAAUGGGCAAUGGAAUGATT against Sftpd: the z-score was inactive: -0.692.

Regarding CCAAGGGUUGCUUCGAGCATT against Upk1a, the z-score was inactive: 1.18.

Take CCAUGAAUAGCAUCUUUGCTT against Adamtsl2: the z-score is inactive: 0.834.

Turning to “GGAGAUUGUGACUGCUUUATT against A830091I15Rik”, the z-score is inactive: -0.485.

On to GGGACAGAUACUAAACUCUTT against Wfdc2, for which the z-score is inactive: -1.29.

As to CCCAUCAUAAGGCAUGUAUTT against Olfr748, the z-score is inactive: -0.559.

Regarding CCAAGAAUCACUGUGUUUATT against Mcf2l, the z-score is inactive: 0.495.

On to GGCCAGGAAAAAAUCUGCATT against Neu1, for which the z-score is inactive: 0.502.

For the sequence CCCUUUUGGAAACACUUUUTT against Ehd2, the z-score was inactive: 0.472.
